Test results taken from patent US20150284342A1, “BIS(FLUOROALKYL)-1,4-BENZODIAZEPINONE COMPOUNDS” (BRISTOL-MYERS SQUIBB COMPANY, priority 2011, published 2015).
For some assays here: For at least one compound, name, drawing or mass did not settle the structure. Some results were stated once for a whole list of compounds, not compound by compound.

Legend:
[1] = tested on: Notch 1; experiment: Notch-CBF1 Transactivation Assay (Notch 1); format: cell-based; conditions: HeLa cells, luciferase
Description: (§1) Table 12 denotes respective DNA quantity for the transfections.
(§2) Duplicates were used for each sample.

[2] = tested on: Notch 3; experiment: Notch-CBF1 Transactivation Assay (Notch 3); format: cell-based; conditions: HeLa cells, luciferase
Description: as §1, §2

[3] = tested on: ALL-SIL T-cell lymphoblastic leukemia; experiment: Human tumor xenograft model in mice: ALL-SIL (combination with dasatinib); format: in vivo; conditions: single agent

SMILES | IC50 [1] [nM] | IC50 [2] [nM] | complete response (CR) [3]
[2H]C([2H])([2H])N1C(=O)[C@@H](NC(=O)[C@H](CCC(F)(F)F)[C@H](CCC(F)(F)F)C(N)=O)N=C(c2ccccc2)c2ccccc21 [Example 5, (2R,3S)—N-((3S)-1-(^2H3)Methyl-2-oxo-5-phenyl-2,3-dihydro-1H-1,4-benzodiazepin-3-yl)-2,3-bis(3,3,3-trifluoropropyl)succinamide] | ≤ 6.6 | ≤ 13 | –
Cc1nc(Nc2ncc(C(=O)Nc3c(C)cccc3Cl)s2)cc(N2CCN(CCO)CC2)n1 [Dasatinib, dasatinib, reference compound] | – | – | none of the single agent produced CR
CN1C(=O)[C@@H](NC(=O)[C@H](CCC(F)(F)F)[C@H](CCC(F)(F)F)C(N)=O)N=C(c2ccccc2)c2ccccc21 [Example 1, (2R,3S)—N-((3S)-1-Methyl-2-oxo-5-phenyl-2,3-dihydro-1H-1,4-benzodiazepin-3-yl)-2,3-bis(3,3,3-trifluoropropyl)succinamide] | ≤ 6.6 | ≤ 13 | –
